Source: ChEMBL document CHEMBL4219041, “Improving oral bioavailability of cyclic peptides by N-methylation” (Bioorg Med Chem, 2018)

Assay: in vivo
Conditions: Wistar, rat, po, 10 mg/kg

## CC[C@H](C)[C@@H]1NC(=O)[C@@H]2CCCN2C(=O)[C@H](Cc2ccccc2)NC(=O)[C@H](C(C)(C)C)NC(=O)c2csc(n2)[C@H]([C@@H](C)CC)NC(=O)[C@@H]2CCCN2C1=O
  bioavailability: 51%
